According to paper PMC5021806:

Target: HA-tagged human SLX4 (N-terminally truncated) (human)
Experiment: co-IP; HA-tagged ΔN SLX4 and 3x FLAG Vpr transiently coexpressed in 293T cells; lysed in RIPA buffer plus protease inhibitors in an ice-cold sonicator bath; immunoprecipitation with anti-HA affinity gel 1 h at 4 C, four washes; Western blot with anti-FLAG

B1: HIV-1 N Vpr (consensus sequence) (protein)
chain: MERAPEDAGPQREPYNEWALELLEELKNEAVRHFPRIWLHGLGQHIYNTYGDTWEGVEAIIRILQQLLFIHYRIGCQHSRIGITPQRRRNGASRS
**Q.** For B1, which binding is on record?
**A.** binds

Results are given in words; binding and its absence hold for the method and conditions named. In cells and extracts the contact can be indirect. Binding calls can cover weak binding; strength is not graded here.
